Values from PubChem BioAssay AID652243 (Drosophila RNAi Screening Center, 2013)
The deposit covers about 24,000 reagents; below is a random part of those with a known target gene and a result. In the full data, 246 (1%) were called active. 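Plates not normalised; calls are printed but the firefly/Renilla ratio behind them is not deposited; fold cut for lowering reported inconsistently.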 Raw values are not corrected between plates. Not stated in the record: the amount of reagent.

Purpose: 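Fly regulators of androgen-dependent reporter output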 (primary screen)
Cell system: Drosophila S2R+ cells
Knock-down reagent: long dsRNA against Drosophila genes
Timing: 72 h (48 h, then 24 h hormone)
Treatment: synthetic androgen R1881 at 10 nM for 24 h
Measurement: 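Firefly light from an androgen-responsive reporter and Renilla control light per well, raw and unnormalised, for each of two replicates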
Scale: firefly reporter light: higher = more light from androgen-responsive reporter; Renilla control light: higher = more constitutive control signal (cell number, transfection)
Active means: 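Across duplicate plates, a knock-down whose log firefly/Renilla ratio shifted a set fold down or up from the GFP/LacZ control mean was a hit; the downward cut appears as both 1.5 and 3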
Calls: active = hit: reporter lowered or raised; inactive = no hit

Target gene	DRSC id	firefly reporter light, replicate 1	firefly reporter light, replicate 2	Renilla control light, replicate 1	Renilla control light, replicate 2	Outcome
Rala	DRSC18703	3.42e5	2.90e5	3.66e6	3.02e6	inactive
Rala	DRSC27866	7.05e5	3.85e5	3.31e6	1.32e6	inactive
Sgs5	DRSC16862	2.18e5	2.21e5	2.11e6	2.32e6	inactive
Nepl18	DRSC14879	2.45e5	1.81e5	2.86e6	3.16e6	inactive
CG2444	DRSC19846	2.27e5	1.82e5	3.92e6	3.47e6	inactive
Rpt1	DRSC07542	4.62e5	6.21e5	1.20e6	1.49e6	inactive
BOD1	DRSC15824	72152	81628	6.07e5	4.36e5	inactive
BOD1	DRSC24273	5.24e5	6.66e5	9.37e5	9.54e5	inactive
dpr12	DRSC04863	3.65e5	3.28e5	2.17e6	2.00e6	inactive
dpr12	DRSC04892	2.71e5	3.39e5	1.66e6	1.77e6	inactive
St2	DRSC15142	1.02e5	1.37e5	2.13e6	2.12e6	inactive
St2	DRSC22624	6.35e5	6.00e5	1.86e6	1.26e6	inactive
CG6966	DRSC16156	96531	80808	1.63e6	1.68e6	inactive
CG6966	DRSC24518	5.52e5	5.98e5	5.54e5	1.02e6	inactive
CG13725	DRSC10054	4.05e5	4.33e5	1.81e6	2.59e6	inactive
CG7856	DRSC04896	2.64e5	3.58e5	2.18e6	2.68e6	inactive
CG15375	DRSC18045	2.82e5	4.16e5	3.32e6	4.42e6	inactive
CG15375	DRSC29860	7.78e5	6.49e5	1.01e6	1.61e6	inactive
thr	DRSC07706	1.06e6	7.41e5	2.16e6	1.52e6	inactive

Part of the list above, reduced to “firefly reporter light, replicate 1”:
CG6966 [DRSC16156] = 96531
CG6966 [DRSC24518] = 5.52e5
CG13725 [DRSC10054] = 4.05e5

Further records follow:
Target gene	DRSC id	firefly reporter light, replicate 1	firefly reporter light, replicate 2	Renilla control light, replicate 1	Renilla control light, replicate 2	Outcome
Tpc2	DRSC04322	2.24e5	2.53e5	1.45e6	1.71e6	inactive
Nmda1	DRSC07479	1.28e6	1.08e6	1.77e6	1.58e6	inactive
Nmda1	DRSC26357	2.78e5	2.96e5	4.64e5	4.53e5	inactive
Or47b	DRSC07492	1.48e5	1.53e5	8.67e5	1.05e6	inactive
CG7328	DRSC10812	3.06e5	2.07e5	2.03e6	1.74e6	inactive
CG7328	DRSC39265					inactive
lncRNA:cherub	DRSC36550	5.95e5	6.17e5	1.31e6	1.29e6	inactive
lncRNA:cherub	DRSC36551	5.05e5	6.40e5	1.55e6	1.64e6	inactive
lncRNA:cherub	DRSC36552	7.49e5	6.58e5	1.46e6	1.01e6	inactive
Cox11	DRSC22692	6.32e5	6.02e5	1.93e6	1.99e6	inactive
CG17005	DRSC02556	1.64e5	2.35e5	8.56e5	1.30e6	inactive
CG12963	DRSC06265	59811	83982	1.36e6	1.36e6	inactive
CG5704	DRSC08572	8.26e5	8.34e5	2.12e6	2.08e6	inactive
CG13384	DRSC02258	6.65e5	1.06e6	1.78e6	1.71e6	inactive
bur	DRSC03163	1.04e6	7.94e5	2.16e6	2.28e6	inactive
pns	DRSC08598	43923	54325	6.73e5	1.08e6	inactive
CG44433	DRSC06517	1.40e5	2.19e5	2.59e6	2.85e6	inactive
CG44433	DRSC06518	67692	93492	7.72e5	1.13e6	inactive
CG44433	DRSC26571	2.89e5	3.28e5	6.16e5	6.53e5	inactive
fig	DRSC16270	1.16e5	1.39e5	1.90e6	2.29e6	inactive
fig	DRSC24735	4.95e5	5.58e5	9.46e5	6.64e5	inactive
Oct-TyrR	DRSC11883	2.62e5	2.08e5	2.17e6	2.69e6	inactive
CG32643	DRSC18962	7.05e5	4.73e5	9.51e5	3.65e5	inactive
CG17027	DRSC10238	94782	34290	1.51e6	7.10e5	inactive
CG17027	DRSC25560	8.82e5	7.92e5	7.91e5	7.89e5	inactive
CG17027	DRSC39264					inactive
Mcm3	DRSC18679	85534	1.10e5	6.67e5	4.65e5	inactive
Mcm3	DRSC25729	6.86e5	5.02e5	5.59e5	6.36e5	inactive
CG4101	DRSC10400	2.57e5	3.12e5	2.50e6	2.44e6	inactive
CG34393	DRSC00419	61150	78418	1.08e6	1.06e6	inactive
CG34393	DRSC00710	1.06e5	1.17e5	1.03e6	7.57e5	inactive
CG34393	DRSC24621	8.38e5	7.97e5	8.14e5	6.29e5	inactive
CG34393	DRSC26763	5.74e5	5.15e5	1.06e6	6.07e5	inactive
Sr-CIV	DRSC00575	1.55e5	1.06e5	9.65e5	1.06e6	inactive
Sr-CIV	DRSC24930	7.23e5	6.37e5	7.37e5	7.00e5	inactive
CG7194	DRSC10784	1.64e5	1.68e5	1.54e6	1.31e6	inactive
Fnta	DRSC00557	7.61e5	1.22e6	1.56e6	1.49e6	inactive
Fnta	DRSC28877	4.35e5	3.21e5	9.67e5	1.01e6	inactive
CG5756	DRSC06950	95348	73153	1.58e6	1.58e6	inactive
CG5756	DRSC28245	4.30e5	5.83e5	9.32e5	1.62e6	inactive
